Test: Interference of test compounds with DiBAC4(3) fluorescence in the absence of cells
Conditions: cell-free conditions

## CCCCc1oc2ccccc2c1C(=O)c1cc(I)c(OCCN(CC)CC)c(I)c1 [amiodarone]
  concentration at which the compound interferes with / reduces the DiBAC4(3) fluorescence: greater than or equal to 1 μM
Listed as Amiodarone
  concentration at which the compound interferes with / reduces the DiBAC4(3) fluorescence: ≥ 1 µM

— patent US8323911B2, “High throughput assay for discovering new inhibitors of the GIRK1/4 channel” (University of South Carolina, priority 2010, dated 2012)
